This assay deals with T1, HM-HN1 (pCW57-HM-HN1), Doxycycline-induced in stable DU-145 cells (human) (UniProt Q9UK76).
T1 sequence: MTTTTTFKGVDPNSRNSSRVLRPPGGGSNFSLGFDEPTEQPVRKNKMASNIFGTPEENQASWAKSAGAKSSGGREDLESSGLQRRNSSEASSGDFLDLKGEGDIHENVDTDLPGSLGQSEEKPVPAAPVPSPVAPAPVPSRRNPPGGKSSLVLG
The assay is described as follows: co-IP; anti-HN1 antibody crosslinked to Dynabeads G; lysate of DU-145 pCW57-HM-HN1 cells induced with Doxycycline and transfected with Cdh1-HA; immunoblot with anti-Cdh1.

Sequences of proteins named here, by UniProt entry; tags and fusion partners are left off.
UniProt Q9UM11: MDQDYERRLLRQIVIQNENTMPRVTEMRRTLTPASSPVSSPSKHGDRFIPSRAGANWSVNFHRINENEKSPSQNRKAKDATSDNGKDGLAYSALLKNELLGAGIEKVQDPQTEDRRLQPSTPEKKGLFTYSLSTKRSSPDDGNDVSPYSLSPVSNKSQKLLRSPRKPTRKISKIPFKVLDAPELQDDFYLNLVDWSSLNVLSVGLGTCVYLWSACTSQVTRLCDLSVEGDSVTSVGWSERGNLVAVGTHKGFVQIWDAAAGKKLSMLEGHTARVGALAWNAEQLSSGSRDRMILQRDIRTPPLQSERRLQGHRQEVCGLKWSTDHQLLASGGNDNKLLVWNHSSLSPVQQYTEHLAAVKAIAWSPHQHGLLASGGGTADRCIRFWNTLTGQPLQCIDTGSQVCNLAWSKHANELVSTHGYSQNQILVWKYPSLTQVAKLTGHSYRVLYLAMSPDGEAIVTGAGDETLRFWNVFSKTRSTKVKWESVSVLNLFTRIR

No constants are given. Whether binding was seen depends on the method and setting. In cells and extracts the contact can be indirect. Some results given as binding are weak or reduced against the parent protein; the word gives no strength.

“Cdh1-HA (Addgene No. 11596), expressed in DU-145 cells (from UniProt Q9UM11 1-496)”: the binding result is listed as “binds”.

These data come from PMC9952942.
